Assay results reported in the supplement of paper PMC3334620.
The full ranking holds about 33,000 sequences; the median of “E-score (-0.5 to 0.5)” is about -0.0034, and the highest 2% start at about 0.25. Some of the results follow.

biological target: T1, Yap3 (UniProt P38749); assay: PBM E-score (8-mer binding enrichment) (E-score (-0.5 to 0.5)); higher = stronger / more preferred TF binding; details: protein concentration: 100 nM; construct: GST-full length
T1 sequence: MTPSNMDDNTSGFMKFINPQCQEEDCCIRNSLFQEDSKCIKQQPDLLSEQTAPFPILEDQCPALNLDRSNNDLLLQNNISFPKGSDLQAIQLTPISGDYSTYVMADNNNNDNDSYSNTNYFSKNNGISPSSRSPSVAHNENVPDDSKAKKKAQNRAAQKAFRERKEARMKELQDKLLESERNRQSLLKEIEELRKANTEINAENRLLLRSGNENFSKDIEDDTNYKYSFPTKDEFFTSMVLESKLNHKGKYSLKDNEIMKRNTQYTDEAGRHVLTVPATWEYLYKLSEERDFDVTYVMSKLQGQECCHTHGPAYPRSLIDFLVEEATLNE
Experimental: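 Universal 'all 10-mer' protein binding microarrays (Agilent AMADID 015681) probed with GST-tagged S. cerevisiae TFs (full-length or DBD) made by in vitro transcription/translation (PURExpress), about 100-200 nM. Bound TF was detected with fluorescent anti-GST. Each ungapped 8-mer (which stands for itself and its reverse complement) is scored by the PBM enrichment score (E-score), a modified Wilcoxon-Mann-Whitney statistic from -0.5 to +0.5, computed with the Universal PBM Analysis Suite. Scale: above 0.35 generally sequence-specific binding.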

Sequence | PBM E-score
CCCTGACA | -0.11
ACTTGCCC | -0.138
AGTAGTAG | -0.00727
CCTTACAA | -0.0411
AATATACT | 0.205
AAGGATTC | -0.129
CAAACTAA | 0.25
GCTCAGCC | -0.255
GGGACCAA | -0.0553
CGATCCCG | -0.207
TATGGTGA | 0.0221
CTCCGCCA | -0.224
GAGGGGCC | -0.323
CGTATTGC | 0.06
ACGTTGGC | -0.0773
GACCATAC | -0.0526
GGCGACCC | -0.304
GGGGTTAC | -0.233
CTTGGACC | -0.314
CGGGAATA | 0.196
AGCAGAAC | -0.0354
CTAGCACC | -0.00721
ACCTTCCC | -0.0325
CGCTGACC | -0.0253
AGTTAAGA | 0.0921

Sequence | PBM E-score
GACTGGTA | 0.00201
AGCACTTG | -0.241
AAACGCAG | 0.0596
AAGTTCAG | -0.053
AAGTTGGT | 0.234
ACAATCCC | 0.0359
GCGCGCAA | 0.164
CTACTATA | 0.14
ACAAGGAA | 0.141
CAAGTGTA | 0.0709
AGCATGCG | -0.0917
CCGGTCTC | -0.215
ACTAGAGA | -0.0996
CTATGTGC | -0.0493
AGTCGTGA | 0.0306
CGGGCGAC | -0.245
GTACCGGA | 0.0353
CCGGGATA | 0.0635
CGCCGTCC | -0.201
GGGGGTTA | -0.34
AGTACTCA | 0.0416
GGTCCTCA | -0.0789
AATCATGT | 0.152
ATATTTGA | 0.149
ATGCCTTA | -0.0718

Sequence | PBM E-score
AGTCACCA | -0.105
AATGGCAG | -0.0161
AGGTGACA | 0.097
ACATAACA | 0.285
CTAAGCTC | -0.136
ACGGCCCT | -0.149
ATGGTGCG | -0.17
CACTTAAG | 0.115
GAGTTTGC | -0.0658
GCACGCCC | -0.168
GCCCATGA | -0.0132
ACTTAAGT | 0.193
ACAGAGCG | -0.216
ATTGTGCG | 0.0137
TCTGGACA | -0.0238
ACTGTCTC | 0.0475
CATGAGTA | 0.0202
AGCTTCGA | -0.149
AGGATTCG | -0.00903
CCCGTCTA | -0.0601
ACACATCA | -0.067
ACAGACCG | -0.0661
GAGGGGAC | -0.162
CATTACCG | 0.0851
CGATTAAC | 0.0957

Sequence | PBM E-score
CCATGGCA | 0.0196
TAGGCGCA | 0.0286
CCGCTAAC | -0.0268
GAAACAGC | -0.00127
GCGGAGTA | -0.0538
ACCCGGGA | -0.16
CACAATCG | 0.00252
CCCTGATC | -0.208
CCCATCAC | -0.0869
CGAGAAGC | 0.0526
CTGTCATA | 0.0934
ACCGGTCG | -0.23
AATGGGCC | -0.201
ATCACAGC | 0.116
CCTGCTAC | 0.0701
ACTCCGCA | -0.161
ACAGAACA | 0.135
CCGGGTGC | -0.249
CAAATGTA | 0.245
CTATCTTA | 0.126
GCTAAATA | 0.1
CTCAACAG | 0.0192
CAGCGGAA | 0.0813
CAATATCA | 0.167
GTCAGAAC | -0.113

Sequence | PBM E-score
AGGTTACT | 0.0819
AATCACAC | 0.103
GAAGACGC | -0.0463
CACCCCGG | -0.397
GACGATTA | 0.0765
CCGACCCG | -0.0299
GGAGTTAC | 0.0686
AAATCATC | 0.107
CCTGTAAC | -0.0578
GCCATAGC | -0.118
AGACTCTG | -0.108
AAAAATGT | 0.106
ACTATAAT | 0.186
CACTATGA | 0.0176
CCCAACAC | -0.087
ACGTTGCG | 0.0792
CCACAAAA | 0.112
AGGAAATC | 0.127
CTGCGACC | -0.191
AACGCCGA | 0.0374
GACGGAAC | 0.00075
TTATCCAA | 0.17
AGGTCTGA | -0.0137
AGCAGTGG | -0.0962
ACTCGAGG | -0.00572

A second format for part of the listing above:
Sequence	PBM E-score
GGAGTTAC	0.0686
AAAAATGT	0.106
AGGTCTGA	-0.0137

Remaining list, next part.

Sequence | PBM E-score
AGAAAAAT | 0.141
CCTTGCCG | -0.102
GACAGCGC | -0.0413
AGCGGAAC | -0.0776
ATAGCGGA | -0.065
GGACAATA | 0.177
CTAGCTTA | 0.166
CACGTGCC | -0.0149
AGTTAGAG | -0.0388
CTGTTTCC | -0.043
CCAAGCAA | 0.0643
AGAACAAG | 0.205
AATGATCC | -0.068
AAGAGGCA | -0.173
AAGTAGCT | -0.076
GTTGTATA | 0.244
ACGTGTGC | -0.113
AAAGTCGG | -0.031
GTTAGTGA | 0.0844
AGAATTGA | 0.0737
GCCTTAAA | 0.0802
ACATGTGG | 0.202
AAGTTGGA | 0.0831
CGGAAGAC | -0.00677
CTTTAGCA | -0.0363

A second format for part of the listing above:
Sequence	PBM E-score
CCGACCCG	-0.0299
GGAGTTAC	0.0686
AAATCATC	0.107
GCCATAGC	-0.118
AGACTCTG	-0.108
AAAAATGT	0.106
ACTATAAT	0.186
CACTATGA	0.0176
CCCAACAC	-0.087
ACGTTGCG	0.0792
CCACAAAA	0.112
AGGAAATC	0.127
CTGCGACC	-0.191
AACGCCGA	0.0374
GACGGAAC	0.00075
TTATCCAA	0.17
AGGTCTGA	-0.0137
AGCAGTGG	-0.0962
ACTCGAGG	-0.00572
AGAAAAAT	0.141
GACAGCGC	-0.0413
AGCGGAAC	-0.0776
ATAGCGGA	-0.065
GGACAATA	0.177
CTAGCTTA	0.166
CACGTGCC	-0.0149
AGTTAGAG	-0.0388
CTGTTTCC	-0.043
CCAAGCAA	0.0643
AGAACAAG	0.205
AATGATCC	-0.068
AAGAGGCA	-0.173
AAGTAGCT	-0.076
GTTGTATA	0.244
AAAGTCGG	-0.031
GTTAGTGA	0.0844
AGAATTGA	0.0737
GCCTTAAA	0.0802
ACATGTGG	0.202
AAGTTGGA	0.0831
CGGAAGAC	-0.00677
CTTTAGCA	-0.0363

The list continues:

Sequence | PBM E-score
ACCCATGG | -0.219
CGATATTA | 0.358
GCAGAAAA | 0.162
CCATGAGG | -0.0244
CGGTTTAA | 0.0585
CGTTAGGA | 0.108
CATCAGAC | -0.133
CACTATTA | 0.0335
ACGCCCAT | 0.0125
TCATACGA | 0.0882
CTTTCATC | 0.0299
GAGCTGAC | 0.0104
CGCGGCCC | -0.0882
GTGGTAAA | -0.0974
GATTCTGC | 0.00403
ACCCTTCC | -0.155
CAGATTCA | -0.0752
ATTGAAAA | 0.266
GCTAATTA | 0.279
ATCCCGAT | 0.14
ATCAAACG | -0.00902
GCGATCGA | 0.21
